# This is one part of the list.
# By UniProt entry, the sequences of proteins in these tests, tags left out. Where a name states a change or a piece, a line headed by the entry shows the natural chain unless it says otherwise.
# UniProt Q9NX63: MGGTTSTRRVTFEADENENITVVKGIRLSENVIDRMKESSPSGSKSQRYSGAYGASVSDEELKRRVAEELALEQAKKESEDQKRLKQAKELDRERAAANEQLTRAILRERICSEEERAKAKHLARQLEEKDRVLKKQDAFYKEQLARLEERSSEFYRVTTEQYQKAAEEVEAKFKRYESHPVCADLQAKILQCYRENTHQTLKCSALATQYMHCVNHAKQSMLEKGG
# UniProt Q8N5B7: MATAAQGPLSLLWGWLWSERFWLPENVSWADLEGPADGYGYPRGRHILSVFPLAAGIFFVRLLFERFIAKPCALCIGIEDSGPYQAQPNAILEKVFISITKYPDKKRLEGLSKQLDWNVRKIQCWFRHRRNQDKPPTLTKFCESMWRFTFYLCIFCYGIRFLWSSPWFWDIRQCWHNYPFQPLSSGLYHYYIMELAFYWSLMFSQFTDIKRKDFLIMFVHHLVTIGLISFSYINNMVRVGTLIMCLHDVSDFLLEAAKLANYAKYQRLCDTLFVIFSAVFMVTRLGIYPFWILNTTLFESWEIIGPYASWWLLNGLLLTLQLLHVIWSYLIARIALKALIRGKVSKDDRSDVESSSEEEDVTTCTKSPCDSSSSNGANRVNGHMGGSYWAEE
# UniProt Q8TAP6: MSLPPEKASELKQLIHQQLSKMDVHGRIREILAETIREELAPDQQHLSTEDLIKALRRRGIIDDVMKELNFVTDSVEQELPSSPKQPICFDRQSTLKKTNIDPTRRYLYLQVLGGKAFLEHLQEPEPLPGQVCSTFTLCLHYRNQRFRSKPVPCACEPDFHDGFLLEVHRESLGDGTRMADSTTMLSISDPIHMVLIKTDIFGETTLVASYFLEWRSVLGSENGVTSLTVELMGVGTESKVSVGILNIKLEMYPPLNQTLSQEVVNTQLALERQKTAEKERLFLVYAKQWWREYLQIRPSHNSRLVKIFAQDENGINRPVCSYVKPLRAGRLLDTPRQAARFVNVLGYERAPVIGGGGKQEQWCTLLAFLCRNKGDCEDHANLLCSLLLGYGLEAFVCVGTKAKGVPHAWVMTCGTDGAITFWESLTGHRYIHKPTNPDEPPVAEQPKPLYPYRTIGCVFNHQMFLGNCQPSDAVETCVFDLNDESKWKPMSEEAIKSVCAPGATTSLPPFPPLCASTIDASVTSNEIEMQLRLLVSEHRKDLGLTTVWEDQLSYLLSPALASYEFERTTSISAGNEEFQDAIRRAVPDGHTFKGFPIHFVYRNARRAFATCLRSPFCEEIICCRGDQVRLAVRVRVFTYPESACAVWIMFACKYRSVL
# UniProt Q9HD42: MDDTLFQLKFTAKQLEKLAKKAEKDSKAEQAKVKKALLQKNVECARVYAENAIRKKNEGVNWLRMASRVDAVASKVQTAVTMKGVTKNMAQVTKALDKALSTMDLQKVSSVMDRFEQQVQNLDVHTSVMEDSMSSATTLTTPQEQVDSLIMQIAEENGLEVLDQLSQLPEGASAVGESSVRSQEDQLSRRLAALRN
# UniProt P57076: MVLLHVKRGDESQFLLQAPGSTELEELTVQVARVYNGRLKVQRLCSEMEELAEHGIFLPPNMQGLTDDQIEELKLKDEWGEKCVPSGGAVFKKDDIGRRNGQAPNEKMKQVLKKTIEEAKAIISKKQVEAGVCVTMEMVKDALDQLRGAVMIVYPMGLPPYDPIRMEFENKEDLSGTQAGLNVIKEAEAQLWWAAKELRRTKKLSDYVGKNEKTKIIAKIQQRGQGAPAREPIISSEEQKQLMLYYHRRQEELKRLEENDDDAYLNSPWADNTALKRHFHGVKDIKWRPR
# UniProt Q9Y6A4: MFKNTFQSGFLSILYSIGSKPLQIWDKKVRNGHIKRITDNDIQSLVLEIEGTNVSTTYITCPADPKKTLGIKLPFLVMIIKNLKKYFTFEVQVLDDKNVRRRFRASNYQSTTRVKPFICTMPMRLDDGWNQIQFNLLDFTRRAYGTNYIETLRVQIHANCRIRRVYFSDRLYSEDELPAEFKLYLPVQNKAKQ
# UniProt Q8WUX2: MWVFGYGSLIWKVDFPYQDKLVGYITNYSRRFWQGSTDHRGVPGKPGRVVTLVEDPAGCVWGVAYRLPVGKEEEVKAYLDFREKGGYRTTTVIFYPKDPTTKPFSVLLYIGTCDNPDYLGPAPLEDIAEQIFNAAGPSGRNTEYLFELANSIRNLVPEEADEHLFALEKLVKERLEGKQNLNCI
# UniProt Q9HC77: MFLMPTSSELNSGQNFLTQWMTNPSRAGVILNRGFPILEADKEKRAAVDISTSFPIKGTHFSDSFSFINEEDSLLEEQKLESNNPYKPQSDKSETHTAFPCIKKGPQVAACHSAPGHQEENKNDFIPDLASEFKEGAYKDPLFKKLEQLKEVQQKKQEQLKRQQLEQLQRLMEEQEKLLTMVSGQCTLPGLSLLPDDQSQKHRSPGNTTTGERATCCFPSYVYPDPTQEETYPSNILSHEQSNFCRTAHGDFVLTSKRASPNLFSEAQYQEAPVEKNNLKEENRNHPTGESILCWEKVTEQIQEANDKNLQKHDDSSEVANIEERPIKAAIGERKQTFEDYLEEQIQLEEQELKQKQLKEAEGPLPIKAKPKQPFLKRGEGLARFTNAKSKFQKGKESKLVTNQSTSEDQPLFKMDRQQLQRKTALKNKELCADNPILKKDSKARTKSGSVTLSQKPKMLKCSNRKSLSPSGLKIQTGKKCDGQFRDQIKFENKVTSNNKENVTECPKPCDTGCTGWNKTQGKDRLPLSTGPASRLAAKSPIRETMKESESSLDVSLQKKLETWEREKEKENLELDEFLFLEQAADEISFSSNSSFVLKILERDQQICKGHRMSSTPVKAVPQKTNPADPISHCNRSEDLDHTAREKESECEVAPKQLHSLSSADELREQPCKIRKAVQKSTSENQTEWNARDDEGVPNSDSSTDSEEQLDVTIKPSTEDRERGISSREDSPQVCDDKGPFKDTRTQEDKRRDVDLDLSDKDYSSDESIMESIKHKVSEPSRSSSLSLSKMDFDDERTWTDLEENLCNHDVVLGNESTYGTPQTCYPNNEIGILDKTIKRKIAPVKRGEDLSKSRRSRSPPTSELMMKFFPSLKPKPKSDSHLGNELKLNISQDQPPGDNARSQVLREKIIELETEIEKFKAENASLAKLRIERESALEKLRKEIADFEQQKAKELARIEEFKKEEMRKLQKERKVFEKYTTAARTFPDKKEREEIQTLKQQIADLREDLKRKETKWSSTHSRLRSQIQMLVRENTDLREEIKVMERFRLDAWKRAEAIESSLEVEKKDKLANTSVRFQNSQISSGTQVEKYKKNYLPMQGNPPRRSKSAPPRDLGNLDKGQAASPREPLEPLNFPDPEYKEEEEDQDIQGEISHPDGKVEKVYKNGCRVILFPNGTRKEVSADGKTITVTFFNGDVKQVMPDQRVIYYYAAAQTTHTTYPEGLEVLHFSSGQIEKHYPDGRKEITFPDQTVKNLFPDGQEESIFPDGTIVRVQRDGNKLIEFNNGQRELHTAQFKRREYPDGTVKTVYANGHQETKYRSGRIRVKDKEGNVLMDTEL
# UniProt Q92903: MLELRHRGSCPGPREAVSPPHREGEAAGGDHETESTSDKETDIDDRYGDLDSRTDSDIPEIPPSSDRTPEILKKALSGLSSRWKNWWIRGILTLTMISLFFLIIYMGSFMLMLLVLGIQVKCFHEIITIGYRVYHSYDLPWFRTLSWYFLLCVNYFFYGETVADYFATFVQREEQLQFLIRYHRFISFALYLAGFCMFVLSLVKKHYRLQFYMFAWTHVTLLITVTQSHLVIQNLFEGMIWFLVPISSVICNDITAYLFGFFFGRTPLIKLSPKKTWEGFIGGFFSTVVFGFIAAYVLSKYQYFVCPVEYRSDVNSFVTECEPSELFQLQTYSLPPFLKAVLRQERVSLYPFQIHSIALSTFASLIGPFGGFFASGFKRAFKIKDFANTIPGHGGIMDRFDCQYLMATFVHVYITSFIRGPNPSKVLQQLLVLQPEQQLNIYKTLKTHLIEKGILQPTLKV
# UniProt Q9UKI2, whole entry, looked up: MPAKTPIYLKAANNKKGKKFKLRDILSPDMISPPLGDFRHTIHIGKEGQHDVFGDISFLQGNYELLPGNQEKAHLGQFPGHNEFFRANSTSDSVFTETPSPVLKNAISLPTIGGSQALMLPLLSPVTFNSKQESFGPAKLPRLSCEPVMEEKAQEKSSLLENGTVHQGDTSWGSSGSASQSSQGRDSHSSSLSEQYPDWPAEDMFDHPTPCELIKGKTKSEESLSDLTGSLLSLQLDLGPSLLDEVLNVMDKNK
# UniProt Q711Q0: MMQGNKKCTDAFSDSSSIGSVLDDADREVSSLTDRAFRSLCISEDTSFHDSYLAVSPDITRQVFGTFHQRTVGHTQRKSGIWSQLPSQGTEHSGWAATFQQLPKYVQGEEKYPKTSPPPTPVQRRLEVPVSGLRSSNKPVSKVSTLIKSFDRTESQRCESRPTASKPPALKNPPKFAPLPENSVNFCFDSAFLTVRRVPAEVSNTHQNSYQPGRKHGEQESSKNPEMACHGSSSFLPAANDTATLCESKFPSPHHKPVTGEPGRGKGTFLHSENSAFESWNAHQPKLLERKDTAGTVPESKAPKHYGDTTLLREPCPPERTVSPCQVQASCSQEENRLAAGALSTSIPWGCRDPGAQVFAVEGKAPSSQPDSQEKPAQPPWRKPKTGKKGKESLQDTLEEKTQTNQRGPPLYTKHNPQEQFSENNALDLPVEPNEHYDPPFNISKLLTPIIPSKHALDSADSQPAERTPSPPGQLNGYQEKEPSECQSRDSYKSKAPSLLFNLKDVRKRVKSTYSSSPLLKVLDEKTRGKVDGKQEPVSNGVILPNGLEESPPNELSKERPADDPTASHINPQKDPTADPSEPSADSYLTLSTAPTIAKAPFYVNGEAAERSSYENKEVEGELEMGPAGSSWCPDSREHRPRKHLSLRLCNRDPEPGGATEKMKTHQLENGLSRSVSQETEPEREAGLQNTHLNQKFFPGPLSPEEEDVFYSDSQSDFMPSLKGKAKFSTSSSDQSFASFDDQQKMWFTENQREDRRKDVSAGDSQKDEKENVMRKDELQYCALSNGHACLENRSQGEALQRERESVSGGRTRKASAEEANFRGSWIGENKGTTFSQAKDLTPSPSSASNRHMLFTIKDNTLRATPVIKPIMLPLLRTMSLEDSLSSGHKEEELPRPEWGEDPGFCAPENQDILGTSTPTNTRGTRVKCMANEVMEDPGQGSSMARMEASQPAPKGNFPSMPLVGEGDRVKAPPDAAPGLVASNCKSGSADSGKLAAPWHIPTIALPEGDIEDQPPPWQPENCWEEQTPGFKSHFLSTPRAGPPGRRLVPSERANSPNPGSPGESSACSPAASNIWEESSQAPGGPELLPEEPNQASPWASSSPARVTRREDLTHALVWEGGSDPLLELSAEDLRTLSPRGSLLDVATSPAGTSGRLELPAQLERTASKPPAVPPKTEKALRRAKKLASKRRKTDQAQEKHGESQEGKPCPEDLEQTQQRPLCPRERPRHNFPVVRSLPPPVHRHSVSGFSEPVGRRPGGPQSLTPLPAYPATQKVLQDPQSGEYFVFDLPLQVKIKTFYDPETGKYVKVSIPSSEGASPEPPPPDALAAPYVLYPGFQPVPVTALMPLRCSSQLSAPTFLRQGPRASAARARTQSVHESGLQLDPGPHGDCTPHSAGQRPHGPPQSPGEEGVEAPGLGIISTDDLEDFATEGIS
# What was measured:
# Experiment in all cases: log2 fold change, soluble protein after heating vs DMSO (PISA); higher = thermal stabilisation; K562 cells, 10 uM, 30 min; active = over 0.2 and 3.5 SD of the protein, either way, in both replicates (recomputed)
# erlotinib = compound: C#Cc1cccc(Nc2ncnc3cc(OCCOC)c(OCCOC)cc23)c1 [erlotinib]
# In short: (§1)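 K562 cells at 2×10^6 cells/mL were treated with 10 μM compound for 30 min. Aliquots were heated for 3 min across 48°C-58°C, pooled, and extracted in PBS with 0.5% NP-40 at 4°C; soluble protein was the supernatant after 21,000xg for 90 min. Soluble protein was quantified by TMTpro 16plex LC-MS/MS with channel sums equalised, and reported as log2 fold change in thermal stability against DMSO controls, with values from duplicates.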
# [1] = compound: C/C(=N\NC(=O)C1=CC(=CC=C1)S(=O)(=O)N2CCOCC2)/C3=C(C=CC(=C3)Cl)O
# In short: as §1
# [2] = compound: C1=CC(=C(C=C1Cl)C2=NC3=NC=CN=C3C(=N2)NC4=CC=NC=C4)F
# In short: as §1
# [3] = compound: C1=CC(=CC=C1C2=NC3=C(N2)C=C(C=C3)C(=O)N)OC4=CC=C(C=C4)Cl
# In short: as §1
# [4] = compound: C1=CC2=C(C=CC(=C2)/C=C\3/C(=O)NC(=NCC4=CC=CS4)S3)N=C1
# In short: as §1
# [5] = compound: C1=CC2=NC=CN=C2C=C1/C=C/3\C(=O)NC(=O)S3
# In short: as §1
# [6] = compound: C1=CC=C(C=C1)C2=NC(=C(N2)C3=CC=NC=C3)C4=CC(=C(C=C4)Cl)O
# In short: as §1
# [7] = compound: C1=CC=C2C(=C1)C3=NNC4=CC=CC(=C43)C2=O
# In short: as §1
# [8] = compound: C1CCN(C1)C(=O)NC2=CC=CC(=C2)NC3=NC=C(C(=N3)NCCC4=CN=CN4)Br
# In short: as §1
# [9] = compound: C1CN(CCC1(CC2=CC=C(C=C2)Cl)N)C3=NC=NC4=C3C=CN4
# In short: as §1
Target,log2 fold change (erlotinib),log2 fold change [1],log2 fold change [2],log2 fold change [3],log2 fold change [4],log2 fold change [5],log2 fold change [6],log2 fold change [7],log2 fold change [8],log2 fold change [9]
CHCHD3 (UniProt Q9NX63),inactive: 0.004,inactive: -0.016,inactive: 0.046,inactive: -0.002,inactive: 0.016,inactive: 0.018,inactive: -0.006,inactive: -0.064,inactive: 0.007,inactive: 0.006
CEP170 (UniProt Q5SW79),inactive: 0.007,inactive: -0.015,inactive: -0.192,inactive: 0.027,inactive: 0,inactive: -0.257,inactive: -0.028,inactive: -0.111,inactive: 0.055,inactive: 0.006
CDK7 (UniProt P50613),inactive: 0.023,inactive: -0.005,inactive: 0.03,inactive: 0.03,inactive: -0.028,inactive: 0.013,inactive: 0.024,inactive: -0.024,inactive: -0.012,inactive: 0.017
CHMP1B (UniProt Q7LBR1),inactive: -0.027,inactive: 0.014,inactive: -0.017,inactive: 0.052,inactive: 0.016,inactive: 0.019,inactive: 0.077,inactive: 0.014,inactive: 0.008,inactive: 0.009
CERS5 (UniProt Q8N5B7),inactive: 0.022,inactive: 0.012,inactive: 0.014,inactive: 0.005,inactive: 0.095,inactive: 0.105,inactive: -0.006,inactive: -0.156,inactive: 0,inactive: -0.087
CDC73 (UniProt Q6P1J9),inactive: 0.095,inactive: 0.038,inactive: -0.309,inactive: 0.163,inactive: 0.043,inactive: -0.249,inactive: -0.107,inactive: -0.023,inactive: -0.16,inactive: 0.031
CENPO (UniProt Q9BU64),inactive: -0.048,inactive: -0.07,inactive: 0.139,inactive: 0.104,inactive: -0.089,inactive: -0.098,inactive: 0.055,inactive: -0.04,inactive: -0.025,inactive: 0.303
CEP76 (UniProt Q8TAP6),inactive: -0.016,inactive: -0.005,inactive: -0.013,inactive: 0.021,inactive: 0.087,inactive: -0.005,inactive: -0.012,inactive: -0.011,inactive: 0.043,inactive: 0.116
CHMP1A (UniProt Q9HD42),inactive: 0.104,inactive: -0.004,inactive: 0.024,inactive: 0.026,inactive: -0.029,inactive: 0.038,inactive: -0.04,inactive: -0.017,inactive: 0.008,inactive: 0.018
CHD6 (UniProt Q8TD26),inactive: -0.208,inactive: -0.225,inactive: 0.102,inactive: -0.024,inactive: -0.138,inactive: -0.035,inactive: 0.002,inactive: -0.769,inactive: 0.155,inactive: 0.199
CDK13 (UniProt Q14004),inactive: -0.064,inactive: 0.039,inactive: -0.147,inactive: 0.028,inactive: -0.126,inactive: -0.014,inactive: -0.012,inactive: -0.212,inactive: -0.006,inactive: -0.129
CFL2 (UniProt Q9Y281),inactive: 0.072,inactive: 0.076,inactive: -0.042,inactive: -0.035,inactive: -0.069,inactive: 0.023,inactive: 0.016,inactive: 0.015,inactive: -0.108,inactive: 0.053
CFAP298 (UniProt P57076),inactive: 0.141,inactive: -0.041,inactive: -0.055,inactive: -0.147,inactive: 0.073,inactive: 0.011,inactive: 0.057,inactive: 0.049,inactive: 0.077,inactive: -0.303
CFAP20 (UniProt Q9Y6A4),inactive: -0.003,inactive: -0.164,inactive: -0.145,inactive: 0.069,inactive: 0.001,inactive: 0.031,inactive: 0.005,inactive: -0.013,inactive: -0.012,inactive: -0.127
CDKAL1 (UniProt Q5VV42),inactive: 0.117,inactive: -0.227,inactive: -0.06,inactive: 0.077,inactive: 0.093,inactive: 0.031,inactive: 0.004,inactive: 0.054,inactive: 0.013,inactive: -0.029
CHAC2 (UniProt Q8WUX2),inactive: 0.025,inactive: -0.011,inactive: 0.001,inactive: -0.012,inactive: -0.003,inactive: -0.033,inactive: -0.018,inactive: 0.001,inactive: -0.025,inactive: 0.093
CENPJ (UniProt Q9HC77),inactive: 0.113,inactive: 0.12,inactive: -0.099,inactive: 0.044,inactive: -0.101,,inactive: 0.067,inactive: -0.15,inactive: -0.097,inactive: 0.06
CDS1 (UniProt Q92903),inactive: 0.001,,inactive: -0.129,inactive: 0.04,,inactive: 0.045,,,,
CHEK2 isoform 9 (UniProt O96017),inactive: -0.041,inactive: 0.117,inactive: 0.093,,inactive: -0.006,inactive: 0.032,inactive: 0.04,inactive: 0.079,inactive: -0.027,inactive: 0.107
CENPC (UniProt Q03188),inactive: -0.3,inactive: -0.177,inactive: -0.062,inactive: 0.001,inactive: 0.025,,,inactive: -0.107,,
CDK17 isoform 2 (UniProt Q00537),inactive: 0.086,inactive: 0.008,inactive: 0.059,inactive: -0.075,inactive: -0.123,inactive: -0.081,,inactive: 0.064,,
CDCA2 (UniProt Q69YH5),active: 0.519,inactive: -0.46,inactive: 0.043,inactive: -0.333,inactive: 0.048,,inactive: -0.002,inactive: -0.033,inactive: -0.082,inactive: 0.256
CDC42EP3 (UniProt Q9UKI2),inactive: -0.068,,inactive: -0.01,inactive: 0.305,,,,,,
CEFIP (UniProt Q711Q0),inactive: 0.019,inactive: 0.038,inactive: -0.195,inactive: 0.015,inactive: 0.083,inactive: 0.13,,inactive: -0.054,,
CELF2 isoform 3 (UniProt O95319),inactive: -0.042,inactive: -0.044,inactive: 0,inactive: 0.045,inactive: 0.004,inactive: 0.047,inactive: 0.021,inactive: 0.064,inactive: -0.022,inactive: 0.086
CDC5L (UniProt Q99459),inactive: -0.048,inactive: -0.015,,inactive: 0.026,inactive: -0.064,,inactive: 0.01,inactive: 0.003,inactive: 0.05,inactive: 0.155

# Whole records from above. Values in the order: log2 fold change (erlotinib)	log2 fold change [1]	log2 fold change [2]	log2 fold change [3]	log2 fold change [4]	log2 fold change [5]	log2 fold change [6]	log2 fold change [7]	log2 fold change [8]	log2 fold change [9]
# CDK7 (UniProt P50613) reads inactive: 0.023	inactive: -0.005	inactive: 0.03	inactive: 0.03	inactive: -0.028	inactive: 0.013	inactive: 0.024	inactive: -0.024	inactive: -0.012	inactive: 0.017
# CEP76 (UniProt Q8TAP6) reads inactive: -0.016	inactive: -0.005	inactive: -0.013	inactive: 0.021	inactive: 0.087	inactive: -0.005	inactive: -0.012	inactive: -0.011	inactive: 0.043	inactive: 0.116

# Source: the supplement of paper PMC10849652
